Measured values from paper PMC7672443, “Structural basis of the XPB helicase–Bax1 nuclease complex interacting with the repair bubble DNA” (Nucleic Acids Research, 2020).
The comparison behind a weaker result is the experiment's own reference, which may not be listed here. For part of these data: For at least one entry, the source does not settle the construct or the ends of the probe.

Chains of the proteins cited; added tags and fusions are not shown. Where a name states a change or a piece, a line headed by the entry shows the natural chain unless it says otherwise. A line that says so, or that is headed by a name, gives the form on record, which may keep a tag or linker. Residues count along the entry.
UniProt Q970I2, 2-439 R205A/D206A/D207A: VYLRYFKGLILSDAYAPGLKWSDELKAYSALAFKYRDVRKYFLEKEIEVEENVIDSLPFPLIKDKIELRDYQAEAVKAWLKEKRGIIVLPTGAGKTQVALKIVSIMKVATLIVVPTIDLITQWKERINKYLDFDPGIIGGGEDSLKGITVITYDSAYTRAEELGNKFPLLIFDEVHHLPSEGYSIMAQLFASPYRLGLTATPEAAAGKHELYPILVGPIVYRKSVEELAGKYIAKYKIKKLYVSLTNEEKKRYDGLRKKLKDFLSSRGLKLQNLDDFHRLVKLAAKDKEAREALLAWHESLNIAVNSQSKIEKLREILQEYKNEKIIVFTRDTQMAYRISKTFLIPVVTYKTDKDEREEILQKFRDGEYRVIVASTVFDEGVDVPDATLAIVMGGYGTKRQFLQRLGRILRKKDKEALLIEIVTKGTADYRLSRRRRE
UniProt P23025: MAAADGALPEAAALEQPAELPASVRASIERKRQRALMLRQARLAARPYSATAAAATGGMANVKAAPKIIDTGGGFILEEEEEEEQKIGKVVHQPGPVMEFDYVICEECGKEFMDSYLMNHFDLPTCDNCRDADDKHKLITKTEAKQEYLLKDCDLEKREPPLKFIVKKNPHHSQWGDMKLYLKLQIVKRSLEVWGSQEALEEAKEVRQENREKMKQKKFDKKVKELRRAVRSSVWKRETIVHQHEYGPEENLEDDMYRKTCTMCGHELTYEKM
human XPB + human p52 + human p8, one chain, as listed by the source, chain 2 of 3: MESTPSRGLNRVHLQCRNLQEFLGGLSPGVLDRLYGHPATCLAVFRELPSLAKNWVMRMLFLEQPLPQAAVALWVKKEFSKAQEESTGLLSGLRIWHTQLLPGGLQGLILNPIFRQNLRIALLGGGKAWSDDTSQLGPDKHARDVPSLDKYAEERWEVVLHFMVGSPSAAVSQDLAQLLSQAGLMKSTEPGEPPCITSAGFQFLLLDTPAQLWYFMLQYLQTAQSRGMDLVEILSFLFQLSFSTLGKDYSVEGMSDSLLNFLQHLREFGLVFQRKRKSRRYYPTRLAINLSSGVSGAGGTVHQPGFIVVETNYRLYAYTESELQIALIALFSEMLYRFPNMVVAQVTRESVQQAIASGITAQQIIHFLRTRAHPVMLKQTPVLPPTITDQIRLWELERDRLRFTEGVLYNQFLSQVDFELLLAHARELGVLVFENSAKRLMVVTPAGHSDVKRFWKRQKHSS
human XPB + human p52 + human p8, one chain, as listed by the source, chain 1 of 3: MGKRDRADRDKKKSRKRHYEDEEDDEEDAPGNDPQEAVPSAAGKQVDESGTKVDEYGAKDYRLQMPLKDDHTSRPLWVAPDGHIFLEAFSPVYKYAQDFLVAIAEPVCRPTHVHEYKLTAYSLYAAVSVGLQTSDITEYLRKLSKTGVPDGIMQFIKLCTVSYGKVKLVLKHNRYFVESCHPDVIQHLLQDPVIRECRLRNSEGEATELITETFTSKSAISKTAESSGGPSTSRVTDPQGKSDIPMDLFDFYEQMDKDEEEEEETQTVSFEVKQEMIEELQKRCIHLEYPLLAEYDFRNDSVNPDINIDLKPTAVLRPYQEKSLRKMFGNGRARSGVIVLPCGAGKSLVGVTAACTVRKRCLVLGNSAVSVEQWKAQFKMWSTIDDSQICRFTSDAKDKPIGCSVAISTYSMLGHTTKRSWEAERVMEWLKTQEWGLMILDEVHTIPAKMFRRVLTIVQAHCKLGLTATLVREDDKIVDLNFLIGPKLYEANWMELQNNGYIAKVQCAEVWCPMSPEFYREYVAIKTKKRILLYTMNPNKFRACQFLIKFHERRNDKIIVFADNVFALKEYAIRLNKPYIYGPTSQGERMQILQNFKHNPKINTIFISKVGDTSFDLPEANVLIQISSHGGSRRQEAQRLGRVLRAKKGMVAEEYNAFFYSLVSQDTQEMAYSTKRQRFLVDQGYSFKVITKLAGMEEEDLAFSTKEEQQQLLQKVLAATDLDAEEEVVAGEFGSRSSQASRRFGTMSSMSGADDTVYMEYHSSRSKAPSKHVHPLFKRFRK
human XPB + human p52 + human p8, one chain, as listed by the source, chain 3 of 3: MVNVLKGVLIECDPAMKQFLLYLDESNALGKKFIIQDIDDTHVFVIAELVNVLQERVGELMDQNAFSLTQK

Key:
Assay in all cases: EMSA
[1] = molecular target: StXPB RED/AAA R205A,D206A,D207A (Sulfurisphaera tokodaii) (UniProt Q970I2); conditions: EMSA: 25 mM Tris-Cl pH 7.5, 100 mM NaCl, 5% glycerol, 1 mM DTT, room temperature 40 min, 0.8 uM forked DNA or 0.3 uM bubble DNA, 4% TBE native gel, ethidium bromide, recombinant protein, residues 2-439, protein details: N-terminal His8 (removed)
[2] = molecular target: StXPB ΔThM1 del270-280 (Sulfurisphaera tokodaii) (UniProt Q970I2); conditions: EMSA: 25 mM Tris-Cl pH 7.5, 100 mM NaCl, 5% glycerol, 1 mM DTT, room temperature 40 min, 0.8 uM forked DNA or 0.3 uM bubble DNA, 4% TBE native gel, ethidium bromide, recombinant protein, residues 2-439, protein details: N-terminal His8 (removed)
[3] = molecular target: human XPA (human) (UniProt P23025); conditions: unstable complex; EMSA: 25 mM Tris-Cl pH 7.5, 100 mM NaCl, 5% glycerol, 1 mM DTT, room temperature 40 min; 0.8 uM forked DNA or 0.3 uM bubble DNA; 4% TBE native gel, ethidium bromide; recombinant protein; protein details: N-terminal His6-SUMO (removed)
[4] = system: human XPB + human p52 + human p8; conditions: unstable complex, smear; EMSA: 25 mM Tris-Cl pH 7.5, 100 mM NaCl, 5% glycerol, 1 mM DTT, room temperature 40 min; 0.8 uM forked DNA or 0.3 uM bubble DNA; 4% TBE native gel, ethidium bromide; recombinant protein; protein details: N-terminal His6 (PreScission, removed)

Measured: binding result

TAGTCACAGCTGATTGCGCTCTGCTCCATAGT / TGATACTTCGAGAGCGCAATCAGCTGTGACTA [forked DNA]
binds more weakly: [1] | [2]; weaker than RED mutant | [3] | [4]

TAGTCACAGCTGATTTTTCTCTGCTCCATAGT / ACTATGGAGCAGAGTTTTTTCAGCTGTGACTA [bubble-5 DNA]
binds more weakly: [1]; significantly reduced | [2]; almost eliminated
